{"source": "PubChem BioAssay AID504793 (Drosophila RNAi Screening Center, 2011)", "purpose": "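Genes required for cells to halt at G2/M after double-strand DNA breaks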 (primary screen)", "system": "Drosophila S2R+ cells", "reagent": "long dsRNA against Drosophila genes, about 0.25 µg dsRNA per well", "time to read-out": "4 days of dsRNA, then 4 hours of drug before read-out", "conditions": "doxorubicin 0.5 µM for 4 hours to cause double-strand breaks, in cells also given a low, harmless dose of dsRNA against nbs to sensitise the assay", "measured": "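Mitotic index as the number of phospho-histone H3-positive cells in each well following doxorubicin, given as raw counts without normalisation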", "scale": "mitotic cells: higher = more cells in mitosis, weaker G2 arrest", "rule for the call": "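a call needs confirmation in secondary tests, with other dsRNAs and a check of mitotic timing without damage, not just a high primary count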", "meaning of the calls": "active = confirmed in follow-up tests; inactive = not confirmed", "note": "The deposit covers about 23,000 reagents; below is an unselected part of those with a known target gene and a result. Over the whole deposit, 62 (0.27%) are marked active. 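Calls come from follow-up tests whose scores are not deposited, so confirmed genes may have low counts here; counts are not normalised per plate.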 Raw values vary from plate to plate and are shown uncorrected. Names joined by + are all predicted targets of the reagent."}
{"Target gene": "tsu", "DRSC id": "DRSC07265", "mitotic cells, replicate 1": 5, "activity call": "inactive"}
{"Target gene": "Rift", "DRSC id": "DRSC14330", "mitotic cells, replicate 1": 9, "activity call": "inactive"}
{"Target gene": "CG1024", "DRSC id": "DRSC12496", "mitotic cells, replicate 1": 3, "activity call": "inactive"}
{"Target gene": "Gr59f", "DRSC id": "DRSC04499", "mitotic cells, replicate 1": 9, "activity call": "inactive"}
{"Target gene": "Gr59f", "DRSC id": "DRSC27044", "mitotic cells, replicate 1": 13, "activity call": "inactive"}
{"Target gene": "CG6793", "DRSC id": "DRSC10714", "mitotic cells, replicate 1": 5, "activity call": "inactive"}
{"Target gene": "CG6793", "DRSC id": "DRSC29291", "mitotic cells, replicate 1": 1, "activity call": "inactive"}
{"Target gene": "CG8292", "DRSC id": "DRSC03082", "mitotic cells, replicate 1": 4, "activity call": "inactive"}
{"Target gene": "RpL26", "DRSC id": "DRSC10726", "mitotic cells, replicate 1": 9, "activity call": "inactive"}
{"Target gene": "mbl", "DRSC id": "DRSC23188", "mitotic cells, replicate 1": 5, "activity call": "inactive"}
{"Target gene": "mbl", "DRSC id": "DRSC28319", "mitotic cells, replicate 1": 7, "activity call": "inactive"}
{"Target gene": "robo3", "DRSC id": "DRSC00374", "mitotic cells, replicate 1": 4, "activity call": "inactive"}
{"Target gene": "robo3", "DRSC id": "DRSC00684", "mitotic cells, replicate 1": 3, "activity call": "inactive"}
{"Target gene": "robl22E", "DRSC id": "DRSC00289", "mitotic cells, replicate 1": 5, "activity call": "inactive"}
{"Target gene": "Ulp1", "DRSC id": "DRSC19339", "mitotic cells, replicate 1": 3, "activity call": "inactive"}

Next part; the last 3 above are carried over.
{"Target gene": "robo3", "DRSC id": "DRSC00684", "mitotic cells, replicate 1": 3, "activity call": "inactive"}
{"Target gene": "robl22E", "DRSC id": "DRSC00289", "mitotic cells, replicate 1": 5, "activity call": "inactive"}
{"Target gene": "Ulp1", "DRSC id": "DRSC19339", "mitotic cells, replicate 1": 3, "activity call": "inactive"}
{"Target gene": "Tgi", "DRSC id": "DRSC09793", "mitotic cells, replicate 1": 6, "activity call": "inactive"}
{"Target gene": "Tgi", "DRSC id": "DRSC09794", "activity call": "inactive"}
{"Target gene": "Tgi", "DRSC id": "DRSC25518", "mitotic cells, replicate 1": 4, "activity call": "inactive"}
{"Target gene": "ZC3H3", "DRSC id": "DRSC10696", "mitotic cells, replicate 1": 6, "activity call": "inactive"}
{"Target gene": "ZC3H3", "DRSC id": "DRSC28763", "mitotic cells, replicate 1": 4, "activity call": "inactive"}
{"Target gene": "CG31910 + snoRNA:Me28S-G2743 (retired record)", "DRSC id": "DRSC00946", "mitotic cells, replicate 1": 6, "activity call": "inactive"}
{"Target gene": "CG6628", "DRSC id": "DRSC10679", "mitotic cells, replicate 1": 4, "activity call": "inactive"}
{"Target gene": "CG30110", "DRSC id": "DRSC05686", "mitotic cells, replicate 1": 6, "activity call": "inactive"}
